Values from PubChem BioAssay AID1259308 (NCATS, 2017).
This is one part, drawn at random, of about 59,000 deposited reagents. Of all reagents, about 1,510 (2.6%) were called active. 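Calls use total luciferase alone and ignore viability, so some active siRNAs may act by altering cell number.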 The numbers tell different reagents against one gene apart. Not all columns of the deposit are shown. No sequences are given here.

Test: 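Genes whose loss raises luciferase production in HEK293 cells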 (primary screen)
System: human HEK293 embryonic kidney cells stably expressing firefly luciferase (HEK-CMV-Luc2-Hygro)
Reagents: single siRNA against human genes, 0.8 pmol siRNA per well
Duration: 72 h
Read-out: 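Reporter luminescence and viable-cell signal on separate replicate plates, given as percent of non-targeting control and median/MAD z-scores, plus per-cell luciferase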
Reading the numbers: total luciferase, z-score and total luciferase, % of control: higher = more reporter protein produced
Rule for the call: 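Active when the median/MAD z-score for overall luciferase is greater than 3; a gene was taken forward for validation with new siRNAs if at least two of its three siRNAs passed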
Calls: active = raised luciferase; inactive = no rise

SPTLC2 #1 | total luciferase, z-score: 0.231; total luciferase, % of control: 86.5; Outcome: inactive
SPTLC2 #2 | total luciferase, z-score: -1.2; total luciferase, % of control: 57.9; Outcome: inactive
SPTLC2 #3 | total luciferase, z-score: -0.401; total luciferase, % of control: 73.9; Outcome: inactive
ITPRIPL1 #1 | total luciferase, z-score: 3.79; total luciferase, % of control: 157; Outcome: active
ITPRIPL1 #2 | total luciferase, z-score: 1.28; total luciferase, % of control: 107; Outcome: inactive
ITPRIPL1 #3 | total luciferase, z-score: 1.7; total luciferase, % of control: 116; Outcome: inactive
RGS5 #1 | total luciferase, z-score: 0.174; total luciferase, % of control: 85.3; Outcome: inactive
RGS5 #2 | total luciferase, z-score: -0.207; total luciferase, % of control: 77.8; Outcome: inactive
RGS5 #3 | total luciferase, z-score: 1.99; total luciferase, % of control: 121; Outcome: inactive
RAB3IL1 #1 | total luciferase, z-score: -0.275; total luciferase, % of control: 76.4; Outcome: inactive
RAB3IL1 #2 | total luciferase, z-score: -0.114; total luciferase, % of control: 79.6; Outcome: inactive
RAB3IL1 #3 | total luciferase, z-score: -1.89; total luciferase, % of control: 44.2; Outcome: inactive
RBFOX1 #1 | total luciferase, z-score: -1.87; total luciferase, % of control: 44.6; Outcome: inactive
RBFOX1 #2 | total luciferase, z-score: -0.031; total luciferase, % of control: 81.3; Outcome: inactive
RBFOX1 #3 | total luciferase, z-score: 0.532; total luciferase, % of control: 92.5; Outcome: inactive
NMNAT1 #1 | total luciferase, z-score: -0.117; total luciferase, % of control: 79.6; Outcome: inactive
NMNAT1 #2 | total luciferase, z-score: -1.26; total luciferase, % of control: 56.9; Outcome: inactive
NMNAT1 #3 | total luciferase, z-score: -0.547; total luciferase, % of control: 71; Outcome: inactive
PLEKHM1P1 #1 | total luciferase, z-score: -0.304; total luciferase, % of control: 75.8; Outcome: inactive
PLEKHM1P1 #2 | total luciferase, z-score: -0.368; total luciferase, % of control: 74.6; Outcome: inactive
PLEKHM1P1 #3 | total luciferase, z-score: -0.873; total luciferase, % of control: 64.5; Outcome: inactive
GNG7 #1 | total luciferase, z-score: 0.92; total luciferase, % of control: 100; Outcome: inactive
GNG7 #2 | total luciferase, z-score: 2; total luciferase, % of control: 122; Outcome: inactive
GNG7 #3 | total luciferase, z-score: 5.18; total luciferase, % of control: 185; Outcome: active
B4GALT5 #1 | total luciferase, z-score: 2.51; total luciferase, % of control: 132; Outcome: inactive
B4GALT5 #2 | total luciferase, z-score: -0.11; total luciferase, % of control: 79.7; Outcome: inactive
B4GALT5 #3 | total luciferase, z-score: -0.909; total luciferase, % of control: 63.8; Outcome: inactive
AKAP8 #1 | total luciferase, z-score: -1.19; total luciferase, % of control: 58.2; Outcome: inactive
AKAP8 #2 | total luciferase, z-score: 0.116; total luciferase, % of control: 84.2; Outcome: inactive
AKAP8 #3 | total luciferase, z-score: -0.76; total luciferase, % of control: 66.8; Outcome: inactive
SNRPEP2 #1 | total luciferase, z-score: 1.61; total luciferase, % of control: 114; Outcome: inactive
SNRPEP2 #2 | total luciferase, z-score: 5.08; total luciferase, % of control: 183; Outcome: active
SNRPEP2 #3 | total luciferase, z-score: 2.89; total luciferase, % of control: 139; Outcome: inactive
SLC35B3 #1 | total luciferase, z-score: 0.006; total luciferase, % of control: 82; Outcome: inactive
SLC35B3 #2 | total luciferase, z-score: -0.0826; total luciferase, % of control: 80.2; Outcome: inactive
SLC35B3 #3 | total luciferase, z-score: 0.328; total luciferase, % of control: 88.4; Outcome: inactive
PRDM11 #1 | total luciferase, z-score: 0.158; total luciferase, % of control: 85; Outcome: inactive
PRDM11 #2 | total luciferase, z-score: -2.25; total luciferase, % of control: 37.1; Outcome: inactive
PRDM11 #3 | total luciferase, z-score: 0.446; total luciferase, % of control: 90.8; Outcome: inactive
HGD #1 | total luciferase, z-score: 2.37; total luciferase, % of control: 129; Outcome: inactive
HGD #2 | total luciferase, z-score: 0.361; total luciferase, % of control: 89.1; Outcome: inactive
HGD #3 | total luciferase, z-score: 0.0298; total luciferase, % of control: 82.5; Outcome: inactive

Hits, of those listed so far:
ITPRIPL1 #1 | total luciferase, z-score: 3.79; total luciferase, % of control: 157; Outcome: active
GNG7 #3 | total luciferase, z-score: 5.18; total luciferase, % of control: 185; Outcome: active
SNRPEP2 #2 | total luciferase, z-score: 5.08; total luciferase, % of control: 183; Outcome: active
